# According to publication doi:10.1101/2022.02.27.481963:
# These are yes or no findings as the source states them, for the method shown. Binding can be weak; no strength is given.
# B1: Glutamine amidotransferase (GATase) subunit of Methanocaldococcus jannaschii GMP synthetase (enzyme, UniProt Q58970 1-188)
# chain: MIVILDNGGQYVHRIHRSLKYIGVSSKIVPNTTPLEEIESNKEVKGIILSGGPDIEKAKNCIDIALNAKLPILGICLGHQLIALAYGGEVGRAEAEEYALTKVYVDKENDLFKNVPREFNAWASHKDEVKKVPEGFEILAHSDICQVEAMKHKTKPIYGVQFHPEVAHTEYGNEILKNFCKVCGYKFE
# Target: ATP pyrophosphatase (ATPPase) subunit of Methanocaldococcus jannaschii GMP synthetase (Methanocaldococcus jannaschii) (UniProt Q58531)
# Experiment: cross-linking
binder,measurement,value
B1,binding,binds
